Source: PubChem BioAssay AID1671190 (National Center for Advancing Translational Sciences (NCATS), 2021)
Several values for one entry are separate records, joined by “and”; a condition that tells them apart may be missing. Equal values may be shown once. The whole screen tested about 580,000 compounds, of which about 6,100 (1.1%) were called active. Inconclusive means that the source gave no clear call. Such entries were picked first, then a sample of the others. Calls follow the shape of the dose curve; as a rule, active = well fitted inhibition curve with a large enough effect; inconclusive = small, poorly fitted or top-dose-only effect, or another doubt; inactive = no such curve, though single readings can be large or run the other way. Potencies of inconclusive entries are doubtful fits and often do not repeat.

Protein sequences, listed by entry. Tags and fused reporters are not part of them.
UniProt P18054, whole entry, looked up: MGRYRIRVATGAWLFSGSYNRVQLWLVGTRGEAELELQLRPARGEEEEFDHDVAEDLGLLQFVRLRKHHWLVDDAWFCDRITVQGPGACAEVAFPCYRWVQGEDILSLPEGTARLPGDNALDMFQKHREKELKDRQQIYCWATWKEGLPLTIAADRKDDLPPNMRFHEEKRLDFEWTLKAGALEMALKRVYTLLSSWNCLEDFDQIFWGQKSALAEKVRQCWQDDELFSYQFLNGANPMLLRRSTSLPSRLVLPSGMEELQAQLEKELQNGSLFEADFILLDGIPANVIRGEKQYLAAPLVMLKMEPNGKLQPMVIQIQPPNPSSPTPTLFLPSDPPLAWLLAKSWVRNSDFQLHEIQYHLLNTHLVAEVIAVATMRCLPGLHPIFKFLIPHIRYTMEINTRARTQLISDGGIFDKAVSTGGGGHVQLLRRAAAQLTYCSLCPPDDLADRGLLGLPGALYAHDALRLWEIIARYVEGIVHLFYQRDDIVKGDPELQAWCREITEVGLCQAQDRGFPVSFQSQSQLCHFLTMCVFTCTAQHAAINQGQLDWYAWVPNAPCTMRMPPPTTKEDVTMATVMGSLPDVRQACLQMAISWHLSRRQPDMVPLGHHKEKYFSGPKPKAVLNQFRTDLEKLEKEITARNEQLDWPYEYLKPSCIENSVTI

Target: Polyunsaturated fatty acid lipoxygenase ALOX12 (Homo sapiens) (UniProt P18054)
Assay: Primary qHTS assay for inhibitors of human arachidonate 12S-lipoxygenase (ALOX12): Round 2
Conditions: purified 12hLO, xylenol orange hydroperoxide absorbance; series mostly up to 108 µM
In short: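 Hydroperoxide product was detected by ferrous iron/xylenol orange as the 573 to 405 nm absorbance ratio. Arachidonic acid at 40 uM (final) was turned over for 30 min at room temperature by 150 nM human 12hLO, pH 7.0 Hepes buffer, after 15 min compound preincubation.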
Potency is read from the fitted curve at half-maximal effect.

Row | Compound | Potency
1 | CCN(C1CCOCC1)C1CN(C(=O)c2ccoc2)C1 | inactive
2 | O=C(O)C1CSCN1S(=O)(=O)c1cccc2nsnc12 (stereo unspecified) | inconclusive: 50.1 µM [inhibitor, partial curve]
3 | CC(C)N1CCN(C(=O)CCC2CCN(S(=O)(=O)c3ccccc3F)CC2)CC1 | inactive
4 | COc1ccc(NC(=O)O[C@@H]2CO[C@H]3[C@@H]2OC[C@@H]3NC(=O)Nc2ccc(C(C)C)cc2)cc1 | inactive
5 | Cc1ccc(OCc2nc(C#N)c(NCc3ccccc3Cl)o2)cc1 | inconclusive: 39.8 µM [inhibitor, partial curve, poor fit]
6 | COc1ccccc1C(C)NC(=O)CN1CCN(c2ccc([N+](=O)[O-])c3cnccc23)CC1 (stereo unspecified) | active: 11.2 µM
7 | COc1cc(Nc2ncnc3scc(-c4ccc(Cl)cc4)c23)cc(OC)c1 | inactive
8 | Cc1cccc(C)c1Nc1nc2ccccc2o1 | inactive
9 | CC(C)(C)C(=O)/C=c1/[nH]c(=O)/c(=C/c2ccc(O)c(Cl)c2)s1 | inactive
10 | CN1CCC(CN)(N2CCN(c3ccccc3)CC2)CC1 | inconclusive: 39.8 µM [inhibitor, partial curve, poor fit]
11 | Cc1cc(NC(=O)CSc2ccc3nnc(-c4ccccc4)n3n2)no1 | inconclusive: 44.7 µM [inhibitor, partial curve, poor fit]
12 | O=C(Cn1c(=O)[nH]c2c(-c3ccccc3)c[nH]c2c1=O)NCc1ccc(F)cc1 | inconclusive: 79.4 µM [inhibitor, single point]
13 | Cc1ccc2c(CSc3n[nH]c(=O)n3C3CC3)cc(=O)oc2c1C | inconclusive: 89.1 µM [inhibitor, single point]
14 | CCc1c(C)c(C#N)c2[nH]c3ccccc3n2c1=S | inconclusive: 112 µM [inhibitor, single point]
15 | CCc1nc2ccc(C(=O)Nc3cccc(OCC(=O)N(C)C)c3)cn2c1N(CC)CCOC | inactive
16 | CCOc1ccc(CCN2C(=S)N([C@@H](CC(C)C)CN3CCCC3CN3C(=S)NC[C@@H]3CC(C)C)C[C@@H]2CC(C)C)cc1 (stereo partly specified) | inconclusive: 35.5 µM [inhibitor, partial curve, poor fit]
17 | COc1ccc(C(=O)OCC(=O)c2cc(OC)ccc2OC)cc1 | inactive
18 | Cc1n[nH]c(C)c1C(=O)CC1(O)C(=O)N(C)c2ccccc21 (stereo unspecified) | inactive
19 | O=C(/C=C/c1ccccc1)CCN1CCCCC1 | inconclusive: 12.6 µM [inhibitor, full curve, poor fit]
20 | CN1C[C@@H](NC(=O)CC(C)(C)CC(=O)O)C[C@H]1c1nc(-c2ccccc2)no1 | active: 126 µM
21 | O=C1C(=O)N(Cc2cccnc2)C(c2ccccn2)/C1=C(/O)c1ccc(Br)cc1 (stereo unspecified) | inconclusive: 3.55 µM [inhibitor, full curve, poor fit]
22 | N#C/C(=C\c1ccc(-c2ccc(Cl)cc2)o1)c1nc2ccccc2[nH]1 | inconclusive: 44.7 µM [inhibitor, partial curve, poor fit]

Row | Compound | Potency
23 | O=C1CC(c2ccccc2)N(Cc2cn[nH]c2-c2cccs2)CCCCCN1 (stereo unspecified) | inconclusive: 44.7 µM [inhibitor, partial curve]
24 | CC(=O)N(C(C)=O)c1nc(-c2ccccc2)cn1/N=C/c1ccccc1 | inactive
25 | CC1CCN(C(=O)CCSc2nc(-c3ccc4c(c3)OCO4)cc(C(F)(F)F)n2)CC1 | inactive
26 | Cc1cc2oc(=O)cc(CN3CCN(c4ccc(F)cc4)CC3)c2cc1C | inactive
27 | Cc1nc2ccccc2n2c(-c3ccccc3)c3c(=O)n(C)c(=O)n(C)c3c12 | inactive
28 | COc1cc(C#Cc2c(-c3cncn3C)n(C)c3ccc(Br)cc23)cc(OC)c1 | inactive
29 | CC(C)c1nnc(NC(=O)c2cc(=O)c3cc(Cl)ccc3o2)s1 | inactive
30 | C[C@@H]1CN(c2ccc3nnc(-c4ccccn4)n3n2)C[C@H](C)O1 | inconclusive: 4.47 µM [inhibitor, full curve, poor fit]
31 | COc1ccc(CNC(=O)C2(CC3CC(c4ccccc4)=NO3)CCN(C(=O)CCCCCBr)CC2)cc1 (stereo unspecified) | inactive
32 | NC(=S)Nc1cc(Cl)cc(Cl)c1 | inconclusive: 44.7 µM [inhibitor, partial curve, poor fit]
33 | NC(=O)C1CCN(c2ncnc3c2c(-c2ccccc2)cn3-c2ccccc2)CC1 | inconclusive: 112 µM [inhibitor, single point]
34 | CCOc1ccc(NC(=S)NC(=O)c2ccco2)cc1 | inconclusive: 50.1 µM [inhibitor, partial curve, poor fit]
35 | COc1cc(CN2CCc3nc(N4CCN(c5ncccn5)CC4)ncc3C2)cc(OC)c1OC | inconclusive: 39.8 µM [inhibitor, full curve, poor fit]
36 | N#Cc1c(NC(=O)c2ccccc2Cl)n(Cc2ccccc2)c2nc3ccccc3nc12 | inconclusive: 100 µM [inhibitor, partial curve, poor fit]
37 | O=C(CN1C(=O)/C(=C/c2cccc(Br)c2)SC1=S)NCCCN1CCOCC1 | inconclusive: 35.5 µM [inhibitor, single point]
38 | CCSc1ccccc1C(=O)Nc1ccc([N+](=O)[O-])cc1OC | active: 39.8 µM
39 | Cc1cnc(CC2CCN(C(=O)C3CCC3)C2)n1C(C)C (stereo unspecified) | inactive
40 | C/C(CCC(C)C)=N\NC(=S)NCc1ccccc1 | inconclusive: 28.2 µM [inhibitor, full curve, poor fit]
41 | Cc1ccc(S(=O)(=O)NCCc2csc(-c3ccc(Cl)cc3)n2)cc1 | inconclusive: 10 µM [inhibitor, full curve, poor fit]
42 | Cc1c(Cl)cccc1NC(=O)CCS(=O)(=O)c1ccc2c(c1)oc(=O)n2C | inconclusive: 44.7 µM [inhibitor, partial curve, poor fit]
43 | CCn1c(SCC(=O)c2ccc(Cl)cc2Cl)nnc1-c1cnccn1 | inconclusive: 39.8 µM [inhibitor, partial curve, poor fit]
44 | CC(C)(C)OC(=O)N1CCN(c2ccc(NC(=O)Cn3nnc(-c4ccccc4)n3)cc2)CC1 | inconclusive: 0.355 µM [inhibitor, full curve, poor fit]

Row | Compound | Potency
45 | O=C(O)c1ccc2nc(-c3ccc(-c4ccccc4)cc3)c(-c3ccc(-c4ccccc4)cc3)nc2c1 | inconclusive: 56.2 µM [inhibitor, partial curve, poor fit]
46 | O=C(c1ccccc1F)N1CCC2(CC1)CC(=O)N(c1ccccc1)c1ccccc1O2 | inconclusive: 79.4 µM [inhibitor, partial curve]
47 | COc1cccc(OCc2nnc(C(=O)N3CCC[C@@H]3c3nc4ccccc4[nH]3)n2-c2ccccc2)c1OC | inactive
48 | O=C(NC(=S)Nc1cccc(O)c1)c1cncc(Br)c1 | inconclusive: 2.24 µM [inhibitor, full curve, poor fit]
49 | O=C(CSc1nnc(-c2ccncc2)n1-c1ccccc1)N1CCN(c2ccc(Cl)cc2)CC1 | inconclusive: 5.01 µM [inhibitor, full curve, poor fit]
50 | CC[n+]1c(/C=C(\C)SC)sc2ccccc21 | inconclusive: 50.1 µM [inhibitor, partial curve]
51 | Cc1cc(Cl)ccc1Oc1ccccc1C(=O)CC#N | inconclusive: 44.7 µM [inhibitor, partial curve, poor fit]
52 | COc1ccc(OC)c(CN2CCC(C(O)(c3ccccc3)c3ccccc3)CC2)c1 | inconclusive: 7.08 µM [inhibitor, full curve, poor fit]
53 | Cc1ccc(C(CNC(=O)c2cc3ccccc3oc2=O)N(C)C)o1 (stereo unspecified) | inactive
54 | C=CCC[C@H](Cc1ccc(F)cc1)C(=O)OC[C@H](Cc1c[nH]c2ccccc12)NC(=O)[C@H](CC=C)CC(=O)NCCO | inconclusive: 8.91 µM [inhibitor, full curve, poor fit]
55 | O=C(/C=C/c1cccc(O)c1)c1ccc(-c2cccs2)cc1 | inconclusive: 1 µM [inhibitor, full curve, poor fit]
56 | O=S(=O)(c1ccccc1)c1nc(-c2cccs2)oc1NCc1cccnc1 | inconclusive: 28.2 µM [inhibitor, single point]
57 | COc1ccccc1C1CC(c2ccccc2NS(C)(=O)=O)=NN1C(=O)c1ccco1 (stereo unspecified) | inconclusive: 56.2 µM [inhibitor, partial curve, poor fit]
58 | CCOC(=O)c1c(NC(=O)CCCC(=O)O)sc2c1CCC2 | inactive and inconclusive: 112 µM [inhibitor, partial curve, poor fit]
59 | COc1ccc(-n2nc3cc(C)c(N)cc3n2)cc1Cl | active: 8.91 µM
60 | CC(OC(=O)c1cnc(Cl)c(Cl)c1)C(=O)NC(C)(C#N)C(C)C (stereo unspecified) | inconclusive: 112 µM [inhibitor, single point]
61 | Cc1nc2ccc(Nc3nc4cc(S(=O)(=O)N5CCOCC5)ccc4o3)cc2s1 | inconclusive: 28.2 µM [inhibitor, single point]
62 | O=C(COc1ccc(Cl)cc1)N1CCN(c2ccc([N+](=O)[O-])c(N3CCOCC3)c2)CC1 | inactive
63 | CCOc1ccc(Cl)cc1-c1cc(C(=O)NC2CCCCC2)[nH]n1 | inactive
64 | NC(=O)c1cccc(-c2ccnc3c2CC(C(=O)NCc2ccco2)O3)c1 (stereo unspecified) | inconclusive: 112 µM [inhibitor, single point]
65 | CC1=C[C@@H](CNS(=O)(=O)Cc2ccccc2)[C@H](C(C)C)C[C@H]1CC(=O)N1CCN(C)CC1 | inconclusive: 56.2 µM [inhibitor, partial curve, poor fit]
66 | O=C1COc2ccc(C(=O)COC(=O)c3nn(Cc4ccccc4)c(=O)c4ccccc34)cc2N1 | inactive

Filtered by structure: the entries above containing a thiophene ring, fused or not.
Row | Compound | Potency
7 | COc1cc(Nc2ncnc3scc(-c4ccc(Cl)cc4)c23)cc(OC)c1 | inactive
23 | O=C1CC(c2ccccc2)N(Cc2cn[nH]c2-c2cccs2)CCCCCN1 (stereo unspecified) | inconclusive: 44.7 µM [inhibitor, partial curve]
55 | O=C(/C=C/c1cccc(O)c1)c1ccc(-c2cccs2)cc1 | inconclusive: 1 µM [inhibitor, full curve, poor fit]
56 | O=S(=O)(c1ccccc1)c1nc(-c2cccs2)oc1NCc1cccnc1 | inconclusive: 28.2 µM [inhibitor, single point]
58 | CCOC(=O)c1c(NC(=O)CCCC(=O)O)sc2c1CCC2 | inactive and inconclusive: 112 µM [inhibitor, partial curve, poor fit]
